Test results published in paper PMC10926604, “Discovery of a novel small molecule as CD47/SIRPα and PD-1/PD-L1 dual inhibitor for cancer immunotherapy” (Cell Communication and Signaling : CCS, 2024).
No constants are given. Whether binding was seen depends on the method and setting. Some entries that bind do so weakly or less than the wild type. Tags and fused reporters may be left off the sequences shown.

Target: T1, murine CD47 on CHO-K1-mCD47 cells (mouse) (UniProt Q61735)
T1 sequence: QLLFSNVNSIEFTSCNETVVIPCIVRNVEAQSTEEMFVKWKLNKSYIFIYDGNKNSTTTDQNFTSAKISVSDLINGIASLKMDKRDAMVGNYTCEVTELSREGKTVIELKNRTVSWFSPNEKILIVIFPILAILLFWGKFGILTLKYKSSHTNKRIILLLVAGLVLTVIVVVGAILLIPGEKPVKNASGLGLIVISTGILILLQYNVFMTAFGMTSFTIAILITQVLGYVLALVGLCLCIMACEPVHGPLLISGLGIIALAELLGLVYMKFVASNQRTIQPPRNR
Test: flow cytometry on cells; blocking assay: 100 ng SIRPα-Fc or 50 ng PD-L1-Fc pre-incubated with serially diluted SMC18 in PBS 7.2 (1% DMSO) on ice 30 min, added to CHO-K1-CD47 or CHO-K1-PD-1 cells on ice 30 min; PE anti-human IgG (Fc) detection, MFI; only the binder purified

- binding: binds
B1: mouse SIRPα-Fc protein (Fc fusion, UniProt P97797 32-373)
chain: KELKVTQPEKSVSVAAGDSTVLNCTLTSLLPVGPIRWYRGVGPSRLLIYSFAGEYVPRIRNVSDTTKRNNMDFSIRISNVTPADAGIYYCVKFQKGSSEPDTEIQSGGGTEVYVLAKPSPPEVSGPADRGIPDQKVNFTCKSHGFSPRNITLKWFKDGQELHPLETTVNPSGKNVSYNISSTVRVVLNSMDVNSKVICEVAHITLDRSPLRGIANLSNFIRVSPTVKVTQQSPTSMNQVNLTCRAERFYPEDLQLIWLENGNVSRNDTPKNLTKNTDGTYNYTSLFLVNSSAHREDVVFTCQVKHDQQPAITRNHTVLGFAHSSDQGSMQTFPDNNATHNWN
